Data: publication PMC9635645
These are yes or no findings as the source states them, for the method shown. In cells and extracts the contact can be indirect. These calls come from enrichment with a bait or labelling near it, and not all partners need be listed.

Molecular target: FLAG-BEAF-32B-EGFP (Drosophila)
Assay: affinity purification with mass spectrometry; anti-FLAG M2 magnetic beads on nuclear extracts of 4- to 20-h embryos with FLAG-BEAF-32B-EGFP; control embryos y1 w67c23; 2 experimental and 3 control samples; tandem mass spectrometry

- binding: binds
B1: SSRP, subunit of FACT (Facilitates Chromatin Transcription) (protein, UniProt Q05344 1-723)
chain: MTDSLEYNDINAEVRGVLCSGRLKMTEQNIIFKNTKTGKVEQISAEDIDLINSQKFVGTWGLRVFTKGGVLHRFTGFRDSEHEKLGKFIKAAYSQEMVEKEMCVKGWNWGTARFMGSVLSFDKESKTIFEVPLSHVSQCVTGKNEVTLEFHQNDDAPVGLLEMRFHIPAVESAEEDPVDKFHQNVMSKASVISASGESIAIFREIQILTPRGRYDIKIFSTFFQLHGKTFDYKIPMDSVLRLFMLPHKDSRQMFFVLSLDPPIKQGQTRYHYLVLLFAPDEETTIELPFSEAELRDKYEGKLEKEISGPVYEVMGKVMKVLIGRKITGPGNFIGHSGTAAVGCSFKAAAGYLYPLERGFIYIHKPPLHIRFEEISSVNFARSGGSTRSFDFEVTLKNGTVHIFSSIEKEEYAKLFDYITQKKLHVSNMGKDKSGYKDVDFGDSDNENEPDAYLARLKAEAREKEEDDDDGDSDEESTDEDFKPNENESDVAEEYDSNVESDSDDDSDASGGGGDSDGAKKKKEKKSEKKEKKEKKHKEKERTKKPSKKKKDSGKPKRATTAFMLWLNDTRESIKRENPGIKVTEIAKKGGEMWKELKDKSKWEDAAAKDKQRYHDEMRNYKPEAGGDSDNEKGGKSSKKRKTEPSPSKKANTSGSGFKSKEYISDDDSTSSDDEKDNEPAKKKSKPPSDGDAKKKKAKSESEPEESEEDSNASDEDEEDEASD
